# Reference: the supplement of paper PMC10331698
# ± gives the standard deviation of the averaged measurements. Small differences around the control level are noise.
# Key:
# Experiment in all cases: level (log10 ratio to DMSO vehicle control); higher = higher biomarker level / cell amount than vehicle control
# [1] = compound: OCCC(F)(F)C(F)(F)C(F)(F)C(F)(F)C(F)(F)C(F)(F)C(F)(F)C(F)(F)F [8:2 Fluorotelomer alcohol]; conditions: 2200 nM; in DMSO
# Protocol: (§1)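 BioMAP Diversity Plus panel of 12 human primary cell co-culture systems (3C, 4H, LPS, SAg, BT, BF4T, BE3C, CASM3C, HDF3CGF, KF3CT, MyoF, Mphg). Compounds were added 1 h before stimulation and left for 24 h (MyoF 48 h; BT 72 h for soluble read-outs or 6 d for IgG). Biomarkers were read by ELISA, cytotoxicity by SRB, PBMC viability and proliferation by Alamar Blue. Each well value was divided by the mean of 8 DMSO control wells on the same plate and log10 transformed; duplicate blinded samples were tested at 4 concentrations.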
# [2] = compound: FC(F)(F)C(F)(F)C(F)(F)C(F)(F)C(F)(F)C(F)(F)C(F)(F)CCI [1-Iodo-1H,1H,2H,2H-perfluorononane]; conditions: in DMSO
# Protocol: as §1
# [3] = compound: O=C(O)C(F)(F)OC(F)(F)C(F)(F)OC(F)(F)C(=O)O [Perfluoro-3,6-dioxaoctane-1,8-dioic acid]; conditions: 2200 nM; in DMSO
# Protocol: as §1
# [4] = compound: O=C(O)C=CC(F)(C(F)(F)F)C(F)(F)F [3-(Perfluoroisopropyl)-2-propenoic acid]; conditions: in DMSO
# Protocol: as §1
# Perfluorooctanamide = compound: NC(=O)C(F)(F)C(F)(F)C(F)(F)C(F)(F)C(F)(F)C(F)(F)C(F)(F)F [Perfluorooctanamide]; conditions: 2200 nM; in DMSO
# Protocol: as §1
# Perfluorobutanoic acid = compound: O=C(O)C(F)(F)C(F)(F)C(F)(F)F [Perfluorobutanoic acid]; conditions: 2200 nM; in DMSO
# Protocol: as §1
# Perfluoroundecanoic acid = compound: O=C(O)C(F)(F)C(F)(F)C(F)(F)C(F)(F)C(F)(F)C(F)(F)C(F)(F)C(F)(F)C(F)(F)C(F)(F)F [Perfluoroundecanoic acid]; conditions: in DMSO
# Protocol: as §1
# [5] = compound: O=C(O)C(F)(F)OC(F)(F)C(F)(F)OC(F)(F)C(F)(F)C(F)(F)C(F)(F)F [Perfluoro-3,6-dioxadecanoic acid]; conditions: 2200 nM; in DMSO
# Protocol: as §1
# [6] = compound: FC(F)C(F)(F)COCC1CO1 [((2,2,3,3-Tetrafluoropropoxy)methyl)oxirane]; conditions: 2200 nM; in DMSO
# Protocol: as §1
# [7] = compound: FC(F)(F)C(F)(F)C(F)(F)C(F)(F)C(F)(F)C(F)(F)C(F)(F)I [1-Iodopentadecafluoroheptane]; conditions: in DMSO
# Protocol: as §1
# [8] = compound: O=S(=O)(Cl)C(F)(F)C(F)(F)C(F)(F)C(F)(F)C(F)(F)C(F)(F)C(F)(F)C(F)(F)F [Perfluoro-1-octanesulfonyl chloride]; conditions: 2200 nM; in DMSO
# Protocol: as §1
# [9] = compound: O=P(O)(O)CCC(F)(F)C(F)(F)C(F)(F)C(F)(F)C(F)(F)C(F)(F)C(F)(F)C(F)(F)F [((Perfluorooctyl)ethyl)phosphonic acid]; conditions: 2200 nM; in DMSO
# Protocol: as §1
# [10] = compound: O=C(O)C(F)(F)C(F)(F)OC(F)(F)F [Perfluoro-3-methoxypropanoic acid]; conditions: 2200 nM; in DMSO
# Protocol: as §1
# [11] = compound: O=C(O)C(F)(F)C(F)(F)C(F)(F)C(F)(F)C(F)(F)C(F)(F)C(F)(F)C(F)F [9-H-Perfluorononanoic acid]; conditions: 2200 nM; in DMSO
# Protocol: as §1
# [12] = compound: C=CC(=O)OCC(F)(F)C(F)(F)C(F)(F)C(F)(F)COC(=O)C=C [1H,1H,6H,6H-Perfluorohexane-1,6-diol diacrylate]; conditions: 2200 nM; in DMSO
# Protocol: as §1
# [13] = compound: OCC(F)(F)C(F)(F)C(F)(F)C(F)(F)C(F)(F)C(F)(F)C(F)(F)C(F)(F)C(F)(F)C(F)(F)C(F)(F)F [11:1 Fluorotelomer alcohol]; conditions: in DMSO
# Protocol: as §1
# Perfluoropropanoic acid = compound: O=C(O)C(F)(F)C(F)(F)F [Perfluoropropanoic acid]; conditions: 2200 nM; in DMSO
# Protocol: as §1
# [14] = compound: C=C(C)C(=O)OCC(F)(F)C(F)(F)C(F)(F)F [2,2,3,3,4,4,4-Heptafluorobutyl methacrylate]; conditions: 2200 nM; in DMSO
# Protocol: as §1
Test System,level (log10) [1],level (log10) ([2]; 740 nM),level (log10) ([2]; 2200 nM),level (log10) ([2]; 6700 nM),level (log10) ([2]; 20000 nM),level (log10) [3],level (log10) ([4]; 2200 nM),level (log10) ([4]; 6700 nM),level (log10) ([4]; 20000 nM),level (log10) ([4]; 60000 nM),level (log10) (Perfluorooctanamide),level (log10) (Perfluorobutanoic acid),level (log10) (Perfluoroundecanoic acid; 740 nM),level (log10) (Perfluoroundecanoic acid; 2200 nM),level (log10) [5],level (log10) [6],level (log10) ([7]; 740 nM),level (log10) ([7]; 2200 nM),level (log10) ([7]; 6700 nM),level (log10) ([7]; 20000 nM),level (log10) [8],level (log10) [9],level (log10) [10],level (log10) [11],level (log10) [12],level (log10) ([13]; 370 nM),level (log10) ([13]; 1100 nM),level (log10) ([13]; 3300 nM),level (log10) ([13]; 10000 nM),level (log10) (Perfluoropropanoic acid),level (log10) [14]
HDF3CGF:EGFR,-0.015 ± 0.11,0.019 ± 0.02,0.019 ± 0.02,0.016,0.0295 ± 0.023,-0.005 ± 0.021,-0.0085 ± 0.023,-0.0025 ± 0.005,0.0015 ± 0.005,0.0265 ± 0.025,0.042 ± 0.0042,0.017 ± 0.052,-0.0425 ± 0.056,-0.044 ± 0.0028,-0.043 ± 0.025,0.016 ± 0.0014,0.005 ± 0.04,-0.0295 ± 0.022,0.011 ± 0.02,0.0135 ± 0.042,-0.0505 ± 0.087,-0.016,-0.0095 ± 0.0092,0.0155 ± 0.025,0.034 ± 0.021,0.0075 ± 0.028,0.034 ± 0.024,0.044 ± 0.064,0.0275 ± 0.083,0.008 ± 0.031,-0.0155 ± 0.083
MyoF:TIMP-1,-0.006 ± 0.021,-0.0185 ± 0.026,0.008 ± 0.048,-0.002 ± 0.054,0.0165 ± 0.042,0.0005 ± 0.063,0.0135 ± 0.035,-0.0285 ± 0.00071,-0.0085 ± 0.013,0.0535 ± 0.037,-0.006 ± 0.031,-0.0385 ± 0.059,-0.067 ± 0.096,-0.057 ± 0.052,0.0335 ± 0.0021,0.002 ± 0.021,-0.0155 ± 0.021,0.008 ± 0.0014,0.049 ± 0.0057,-0.0605 ± 0.0092,0.003 ± 0.05,0.0545 ± 0.026,0.0025 ± 0.026,-0.0185 ± 0.0035,0.0015 ± 0.005,0.006 ± 0.033,0.0095 ± 0.05,0.015 ± 0.048,0.011 ± 0.02,0.0745 ± 0.073,0.0295 ± 0.016
CASM3C:CCL2/MCP-1,0.005 ± 0.045,0.015 ± 0.023,-0.0005 ± 0.0021,0.003 ± 0.0099,0.02 ± 0.018,0.0275 ± 0.066,0.026 ± 0.067,0.007 ± 0.017,-0.0055 ± 0.011,0.023 ± 0.044,0,-0.0245 ± 0.0021,0.001 ± 0.021,0.0065 ± 0.0092,0.0255 ± 0.047,0.027 ± 0.02,0.006 ± 0.027,-0.0055 ± 0.0092,-0.01 ± 0.0042,0.005 ± 0.018,-0.01 ± 0.037,0.0185 ± 0.053,0.0295 ± 0.077,0.008 ± 0.021,-0.0085 ± 0.0035,-0.007 ± 0.0042,-0.01 ± 0.024,-0.0055 ± 0.012,0.012 ± 0.025,0.001 ± 0.0014,-0.0015 ± 0.059
